Counter-ions that a name gives are not always drawn. Some of the results follow. The calls rarely recur for the same compound in another form.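 In K562 cells expressing nanoluciferase-fused kinases, luminescence was recorded at 4 h intervals between 2 and 18 h, normalized as percent of control with DMSO at 100% and a positive control at 0%. A significant (2 sigma) signal drop marks a time point as decreased. The authors' rule for a hit is not shown and takes in more than the number of time points.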
Legend:
Test in all cases: kinase-Nluc reporter destabilization hit call (1 = scored as downregulated) (binary); higher = compound decreases kinase abundance
Details in all cases: K562, 2-18 h
MAPK1 = MAPK1 (UniProt P28482)
MAPK4 = MAPK4 (UniProt P31152)
MAPKAPK2 = MAPKAPK2 (UniProt P49137)
MKNK1 = MKNK1 (UniProt Q9BUB5)
NTRK3 = NTRK3 (UniProt Q16288)
PAK4 = PAK4 (UniProt O96013)
PBK = PBK (UniProt Q96KB5)
PDGFRB = PDGFRB (UniProt P09619)
PDK1 = PDK1 (UniProt Q15118)
PDPK1 = PDPK1 (UniProt O15530)
PIK4CA = PIK4CA (UniProt P42356)
PIK4CB = PIK4CB (UniProt Q9UBF8)
PLK1 = PLK1 (UniProt P53350)
PRKAA1 = PRKAA1 (UniProt Q13131)
PRKCA = PRKCA (UniProt P17252)
PTK2 = PTK2 (UniProt Q05397)
PTK2B = PTK2B (UniProt Q14289)
RAF1 = RAF1 (UniProt P04049)
[1] = molecular target: RAF1_S257L (clone: RAF1_mut) (UniProt P04049)
NTRK2 = NTRK2 (UniProt Q16620)

Chains of the proteins cited; added tags and fusions are not shown. Lines headed by an entry give the natural chain unless they say otherwise; changes in a name come on top.
UniProt P28482, whole entry: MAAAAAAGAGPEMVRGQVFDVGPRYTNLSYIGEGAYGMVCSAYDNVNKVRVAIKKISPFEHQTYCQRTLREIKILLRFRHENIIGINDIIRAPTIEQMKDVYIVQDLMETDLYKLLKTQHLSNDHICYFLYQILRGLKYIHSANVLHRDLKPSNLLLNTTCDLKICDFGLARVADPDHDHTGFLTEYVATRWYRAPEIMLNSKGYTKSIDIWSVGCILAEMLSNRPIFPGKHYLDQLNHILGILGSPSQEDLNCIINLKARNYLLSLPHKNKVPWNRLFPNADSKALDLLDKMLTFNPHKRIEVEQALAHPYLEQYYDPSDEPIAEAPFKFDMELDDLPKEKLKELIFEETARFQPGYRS
UniProt P49137, whole entry, looked up: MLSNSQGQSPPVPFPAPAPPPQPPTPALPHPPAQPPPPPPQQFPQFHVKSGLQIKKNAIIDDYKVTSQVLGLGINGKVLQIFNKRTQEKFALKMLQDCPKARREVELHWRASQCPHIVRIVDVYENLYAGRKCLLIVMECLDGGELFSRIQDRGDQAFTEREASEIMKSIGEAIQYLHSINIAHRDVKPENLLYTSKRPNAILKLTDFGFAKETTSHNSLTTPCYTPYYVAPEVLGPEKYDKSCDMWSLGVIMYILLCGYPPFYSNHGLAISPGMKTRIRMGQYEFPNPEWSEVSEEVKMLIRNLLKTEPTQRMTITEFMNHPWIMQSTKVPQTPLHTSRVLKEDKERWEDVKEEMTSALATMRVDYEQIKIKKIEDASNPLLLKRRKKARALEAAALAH
UniProt Q9BUB5: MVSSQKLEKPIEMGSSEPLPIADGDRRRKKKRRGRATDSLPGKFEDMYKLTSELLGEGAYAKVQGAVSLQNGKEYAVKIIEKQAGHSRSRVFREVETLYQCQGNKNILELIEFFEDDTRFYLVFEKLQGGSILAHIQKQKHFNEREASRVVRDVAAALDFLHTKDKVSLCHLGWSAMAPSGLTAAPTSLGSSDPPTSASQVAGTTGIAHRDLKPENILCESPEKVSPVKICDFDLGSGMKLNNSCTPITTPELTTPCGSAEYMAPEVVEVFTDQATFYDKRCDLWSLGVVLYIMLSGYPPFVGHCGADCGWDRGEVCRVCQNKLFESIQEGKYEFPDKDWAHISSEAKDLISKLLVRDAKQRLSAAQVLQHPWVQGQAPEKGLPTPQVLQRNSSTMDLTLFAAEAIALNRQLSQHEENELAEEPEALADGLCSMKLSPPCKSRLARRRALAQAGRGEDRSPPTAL
UniProt O96013: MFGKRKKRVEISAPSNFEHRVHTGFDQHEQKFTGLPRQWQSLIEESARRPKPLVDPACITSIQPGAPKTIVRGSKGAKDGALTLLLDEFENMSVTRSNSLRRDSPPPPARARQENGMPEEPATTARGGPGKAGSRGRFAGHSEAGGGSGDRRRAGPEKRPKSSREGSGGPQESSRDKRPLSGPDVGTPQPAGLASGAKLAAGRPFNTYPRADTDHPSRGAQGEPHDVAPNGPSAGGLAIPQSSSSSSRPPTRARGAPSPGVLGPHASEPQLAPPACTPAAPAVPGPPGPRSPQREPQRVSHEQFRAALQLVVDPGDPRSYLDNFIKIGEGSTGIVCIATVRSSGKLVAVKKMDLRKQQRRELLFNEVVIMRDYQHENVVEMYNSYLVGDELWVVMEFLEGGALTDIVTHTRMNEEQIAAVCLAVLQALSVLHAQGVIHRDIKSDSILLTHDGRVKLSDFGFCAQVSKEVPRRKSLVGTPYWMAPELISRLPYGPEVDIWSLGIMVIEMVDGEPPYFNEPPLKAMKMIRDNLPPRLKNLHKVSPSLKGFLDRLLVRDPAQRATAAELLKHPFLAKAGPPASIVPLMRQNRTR
UniProt Q96KB5: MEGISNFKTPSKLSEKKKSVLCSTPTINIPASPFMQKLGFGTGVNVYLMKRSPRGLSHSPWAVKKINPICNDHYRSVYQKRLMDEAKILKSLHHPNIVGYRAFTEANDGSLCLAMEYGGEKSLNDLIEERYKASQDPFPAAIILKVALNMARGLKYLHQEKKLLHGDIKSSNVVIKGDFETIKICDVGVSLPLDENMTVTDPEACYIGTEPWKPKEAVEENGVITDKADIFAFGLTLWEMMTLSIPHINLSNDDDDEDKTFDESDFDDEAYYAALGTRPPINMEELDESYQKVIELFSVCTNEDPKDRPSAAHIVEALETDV
UniProt P09619, whole entry: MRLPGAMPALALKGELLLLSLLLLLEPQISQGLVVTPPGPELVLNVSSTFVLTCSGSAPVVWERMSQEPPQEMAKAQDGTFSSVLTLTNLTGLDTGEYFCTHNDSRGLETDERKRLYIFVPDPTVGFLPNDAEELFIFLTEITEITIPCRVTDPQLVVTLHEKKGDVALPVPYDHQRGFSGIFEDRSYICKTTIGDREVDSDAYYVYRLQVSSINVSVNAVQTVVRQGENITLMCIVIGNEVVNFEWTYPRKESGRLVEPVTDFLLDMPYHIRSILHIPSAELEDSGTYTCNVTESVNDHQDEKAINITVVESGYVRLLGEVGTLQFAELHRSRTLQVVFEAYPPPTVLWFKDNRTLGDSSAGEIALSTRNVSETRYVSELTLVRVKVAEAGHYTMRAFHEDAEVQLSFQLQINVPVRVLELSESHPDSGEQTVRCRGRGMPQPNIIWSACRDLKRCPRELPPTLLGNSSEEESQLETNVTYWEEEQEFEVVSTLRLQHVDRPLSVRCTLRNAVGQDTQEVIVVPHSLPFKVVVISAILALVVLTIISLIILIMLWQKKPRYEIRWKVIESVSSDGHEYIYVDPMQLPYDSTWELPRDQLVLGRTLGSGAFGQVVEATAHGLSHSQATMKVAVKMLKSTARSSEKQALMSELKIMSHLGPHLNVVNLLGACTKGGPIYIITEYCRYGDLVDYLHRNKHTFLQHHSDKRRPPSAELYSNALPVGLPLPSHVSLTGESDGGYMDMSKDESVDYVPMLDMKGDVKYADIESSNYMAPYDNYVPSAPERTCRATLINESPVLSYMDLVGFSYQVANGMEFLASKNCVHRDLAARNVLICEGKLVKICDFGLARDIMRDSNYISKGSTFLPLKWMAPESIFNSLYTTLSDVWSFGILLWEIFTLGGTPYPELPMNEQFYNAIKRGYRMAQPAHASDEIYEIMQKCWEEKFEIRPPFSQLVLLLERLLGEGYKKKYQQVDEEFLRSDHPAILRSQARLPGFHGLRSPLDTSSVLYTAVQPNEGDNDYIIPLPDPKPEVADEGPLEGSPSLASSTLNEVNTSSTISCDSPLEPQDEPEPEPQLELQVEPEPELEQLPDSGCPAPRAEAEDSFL
UniProt O15530: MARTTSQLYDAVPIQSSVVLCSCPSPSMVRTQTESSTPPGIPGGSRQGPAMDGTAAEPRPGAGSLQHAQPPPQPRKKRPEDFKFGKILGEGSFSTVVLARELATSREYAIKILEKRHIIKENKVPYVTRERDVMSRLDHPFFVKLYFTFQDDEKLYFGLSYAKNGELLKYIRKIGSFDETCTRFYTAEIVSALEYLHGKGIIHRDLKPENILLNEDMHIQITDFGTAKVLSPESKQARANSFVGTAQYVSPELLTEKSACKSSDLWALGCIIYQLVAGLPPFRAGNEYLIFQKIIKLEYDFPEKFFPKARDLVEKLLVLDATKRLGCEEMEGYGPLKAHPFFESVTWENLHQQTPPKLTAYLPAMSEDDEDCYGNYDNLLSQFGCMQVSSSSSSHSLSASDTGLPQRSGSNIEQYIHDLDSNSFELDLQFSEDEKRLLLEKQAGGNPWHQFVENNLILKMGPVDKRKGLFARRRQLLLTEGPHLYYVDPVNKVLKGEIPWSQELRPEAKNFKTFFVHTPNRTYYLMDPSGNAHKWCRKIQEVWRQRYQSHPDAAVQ
UniProt Q9UBF8: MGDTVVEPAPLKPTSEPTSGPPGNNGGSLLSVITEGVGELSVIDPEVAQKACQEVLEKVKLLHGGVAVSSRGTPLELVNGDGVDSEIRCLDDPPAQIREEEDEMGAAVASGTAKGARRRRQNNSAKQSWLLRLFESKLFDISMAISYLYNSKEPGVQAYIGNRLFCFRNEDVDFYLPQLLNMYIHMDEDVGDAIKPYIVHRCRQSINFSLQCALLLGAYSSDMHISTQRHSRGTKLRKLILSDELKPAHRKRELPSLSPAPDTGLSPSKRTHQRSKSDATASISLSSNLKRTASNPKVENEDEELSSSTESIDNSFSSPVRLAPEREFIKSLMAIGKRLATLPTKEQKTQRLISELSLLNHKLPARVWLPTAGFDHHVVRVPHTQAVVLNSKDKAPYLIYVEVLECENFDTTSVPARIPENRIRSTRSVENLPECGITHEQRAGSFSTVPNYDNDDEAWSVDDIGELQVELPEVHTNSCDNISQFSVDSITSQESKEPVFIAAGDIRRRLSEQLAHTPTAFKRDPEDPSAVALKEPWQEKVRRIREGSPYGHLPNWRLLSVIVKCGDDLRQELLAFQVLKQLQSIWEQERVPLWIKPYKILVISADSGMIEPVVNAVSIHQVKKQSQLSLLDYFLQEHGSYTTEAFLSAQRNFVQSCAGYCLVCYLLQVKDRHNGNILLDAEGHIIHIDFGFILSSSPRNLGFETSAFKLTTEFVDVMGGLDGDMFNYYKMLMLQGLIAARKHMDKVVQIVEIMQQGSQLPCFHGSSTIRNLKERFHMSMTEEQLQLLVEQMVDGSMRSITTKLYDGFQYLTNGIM
UniProt P53350, whole entry: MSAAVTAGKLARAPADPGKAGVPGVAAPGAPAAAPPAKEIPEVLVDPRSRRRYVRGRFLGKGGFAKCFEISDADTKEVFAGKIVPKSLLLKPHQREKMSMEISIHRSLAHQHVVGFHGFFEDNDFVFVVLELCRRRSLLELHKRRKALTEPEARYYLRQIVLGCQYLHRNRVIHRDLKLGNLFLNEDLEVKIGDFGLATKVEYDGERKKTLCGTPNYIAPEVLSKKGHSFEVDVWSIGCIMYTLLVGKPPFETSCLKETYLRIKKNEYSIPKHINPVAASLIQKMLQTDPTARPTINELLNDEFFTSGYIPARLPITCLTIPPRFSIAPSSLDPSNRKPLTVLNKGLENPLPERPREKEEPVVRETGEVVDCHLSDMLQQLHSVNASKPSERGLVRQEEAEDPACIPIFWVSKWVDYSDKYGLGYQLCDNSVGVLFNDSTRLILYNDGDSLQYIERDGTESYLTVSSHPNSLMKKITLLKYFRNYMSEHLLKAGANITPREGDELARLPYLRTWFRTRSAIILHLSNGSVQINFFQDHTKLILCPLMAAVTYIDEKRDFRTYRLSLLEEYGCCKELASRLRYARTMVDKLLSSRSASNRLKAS
UniProt Q14289, whole entry, looked up: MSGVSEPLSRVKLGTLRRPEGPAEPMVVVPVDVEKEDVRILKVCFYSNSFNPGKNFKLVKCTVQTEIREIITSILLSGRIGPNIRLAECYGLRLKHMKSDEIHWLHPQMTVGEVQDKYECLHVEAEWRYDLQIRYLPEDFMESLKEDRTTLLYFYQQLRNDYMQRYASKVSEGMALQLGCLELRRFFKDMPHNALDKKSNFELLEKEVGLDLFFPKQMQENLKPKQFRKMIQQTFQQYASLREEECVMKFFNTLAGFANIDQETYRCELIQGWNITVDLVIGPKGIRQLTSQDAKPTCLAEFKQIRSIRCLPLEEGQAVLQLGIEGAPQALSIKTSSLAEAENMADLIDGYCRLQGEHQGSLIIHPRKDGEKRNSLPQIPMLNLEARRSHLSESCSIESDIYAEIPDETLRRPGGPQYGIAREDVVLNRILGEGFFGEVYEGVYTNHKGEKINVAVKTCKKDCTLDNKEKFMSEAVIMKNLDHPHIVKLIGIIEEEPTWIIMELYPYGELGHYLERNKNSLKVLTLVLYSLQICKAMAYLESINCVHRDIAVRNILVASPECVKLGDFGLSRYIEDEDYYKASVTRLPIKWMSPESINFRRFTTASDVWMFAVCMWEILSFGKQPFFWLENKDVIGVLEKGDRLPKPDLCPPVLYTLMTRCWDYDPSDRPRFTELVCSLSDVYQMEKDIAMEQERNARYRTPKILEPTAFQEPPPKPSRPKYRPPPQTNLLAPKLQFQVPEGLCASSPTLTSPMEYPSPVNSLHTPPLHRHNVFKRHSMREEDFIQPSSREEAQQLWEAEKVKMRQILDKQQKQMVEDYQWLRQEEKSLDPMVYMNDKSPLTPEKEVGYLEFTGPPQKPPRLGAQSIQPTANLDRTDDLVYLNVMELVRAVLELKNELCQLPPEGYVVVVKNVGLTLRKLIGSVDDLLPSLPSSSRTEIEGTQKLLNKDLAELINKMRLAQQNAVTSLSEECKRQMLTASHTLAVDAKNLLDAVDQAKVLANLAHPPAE

Measured: kinase-Nluc reporter destabilization hit call

C#Cc1cccc(Nc2ncnc3cc4c(cc23)OCCOCCOCCO4)c1 [Icotinib (Hydrochloride)]
inactive: MAPK1; 10 µM 0 | MAPK4; 10 µM 0 | MAPKAPK2; 10 µM 0 | MKNK1; 10 µM 0 | NTRK3; 10 µM 0 | PAK4; 10 µM 0 | PBK; 10 µM 0 | PDGFRB; 10 µM 0 | PDK1; 10 µM 0 | PDPK1; 10 µM 0 | PIK4CA; 10 µM 0 | PIK4CB; 10 µM 0 | PLK1; 10 µM 0 | PRKAA1; 10 µM 0 | PRKCA; 10 µM 0 | PTK2; 10 µM 0 | PTK2B; 10 µM 0 | RAF1; 10 µM 0 | [1]; 10 µM 0

CC(=O)Nc1cccc(-n2c(=O)n(C3CC3)c(=O)c3c(Nc4ccc(I)cc4F)n(C)c(=O)c(C)c32)c1 [Trametinib (DMSO solvate)]
inactive: MAPK1; 10 µM 0 | MAPK4; 10 µM 0 | MAPKAPK2; 10 µM 0 | MKNK1; 10 µM 0 | NTRK2; 10 µM 0 | NTRK3; 10 µM 0 | PAK4; 10 µM 0 | PBK; 10 µM 0 | PDGFRB; 10 µM 0 | PDK1; 10 µM 0 | PDPK1; 10 µM 0 | PIK4CA; 10 µM 0 | PIK4CB; 10 µM 0 | PLK1; 10 µM 0 | PRKAA1; 10 µM 0 | PRKCA; 10 µM 0 | PTK2; 10 µM 0 | PTK2B; 10 µM 0 | RAF1; 10 µM 0 | [1]; 10 µM 0

N#CC[C@H](C1CCCC1)n1cc(-c2ncnc3[nH]ccc23)cn1 [Ruxolitinib (phosphate)]
inactive: MAPK1; 10 µM 0 | MAPK4; 10 µM 0 | MAPKAPK2; 10 µM 0 | MKNK1; 10 µM 0 | NTRK2; 10 µM 0 | PAK4; 10 µM 0 | PBK; 10 µM 0 | PDGFRB; 10 µM 0 | PDK1; 10 µM 0 | PDPK1; 10 µM 0 | PIK4CA; 10 µM 0 | PIK4CB; 10 µM 0 | PLK1; 10 µM 0 | PRKAA1; 10 µM 0 | PRKCA; 10 µM 0 | PTK2; 10 µM 0 | PTK2B; 10 µM 0 | RAF1; 10 µM 0 | [1]; 10 µM 0

CCc1nc(C(N)=O)c(Nc2ccc(N3CCC(N4CCN(C)CC4)CC3)c(OC)c2)nc1NC1CCOCC1 [Gilteritinib]
inactive: MAPK1; 2 µM 0 | MAPK4; 2 µM 0 | MAPKAPK2; 2 µM 0 | MKNK1; 2 µM 0 | NTRK2; 2 µM 0 | NTRK3; 2 µM 0 | PAK4; 2 µM 0 | PBK; 2 µM 0 | PDGFRB; 2 µM 0 | PDK1; 2 µM 0 | PDPK1; 2 µM 0 | PIK4CA; 2 µM 0 | PIK4CB; 2 µM 0 | PLK1; 2 µM 0 | PRKAA1; 2 µM 0 | PTK2; 2 µM 0 | PTK2B; 2 µM 0 | RAF1; 2 µM 0 | [1]; 2 µM 0

CC(C)Nc1cc(-c2c[nH]c(C(=O)N[C@H](CO)c3cccc(Cl)c3)c2)c(Cl)cn1 [Ulixertinib (hydrochloride)]
inactive: MAPK1; 10 µM 0 | MAPK4; 10 µM 0 | MAPKAPK2; 10 µM 0 | MKNK1; 10 µM 0 | NTRK2; 10 µM 0 | NTRK3; 10 µM 0 | PAK4; 10 µM 0 | PBK; 10 µM 0 | PDGFRB; 10 µM 0 | PDK1; 10 µM 0 | PDPK1; 10 µM 0 | PIK4CA; 10 µM 0 | PIK4CB; 10 µM 0 | PLK1; 10 µM 0 | PRKAA1; 10 µM 0 | PRKCA; 10 µM 0 | PTK2; 10 µM 0 | PTK2B; 10 µM 0 | RAF1; 10 µM 0 | [1]; 10 µM 0

CC(C)NC[C@@H](C(=O)N1CCN(c2ncnc3c2[C@H](C)C[C@H]3O)CC1)c1ccc(Cl)cc1 [Ipatasertib]
inactive: MAPK1; 10 µM 0 | MAPK4; 10 µM 0 | MAPKAPK2; 10 µM 0 | MKNK1; 10 µM 0 | NTRK3; 10 µM 0 | PAK4; 10 µM 0 | PBK; 10 µM 0 | PDGFRB; 10 µM 0 | PDK1; 10 µM 0 | PDPK1; 10 µM 0 | PIK4CA; 10 µM 0 | PIK4CB; 10 µM 0 | PLK1; 10 µM 0 | PRKAA1; 10 µM 0 | PRKCA; 10 µM 0 | PTK2; 10 µM 0 | PTK2B; 10 µM 0 | RAF1; 10 µM 0 | [1]; 10 µM 0

CCc1nc(C(N)=O)c(Nc2ccc(N3CCC(N4CCN(C)CC4)CC3)c(OC)c2)nc1NC1CCOCC1 [Gilteritinib hemifumarate]
inactive: MAPK1; 2 µM 0 | MAPK4; 2 µM 0 | MAPKAPK2; 2 µM 0 | MKNK1; 2 µM 0 | NTRK2; 2 µM 0 | NTRK3; 2 µM 0 | PAK4; 2 µM 0 | PBK; 2 µM 0 | PDGFRB; 2 µM 0 | PDK1; 2 µM 0 | PDPK1; 2 µM 0 | PIK4CA; 2 µM 0 | PIK4CB; 2 µM 0 | PLK1; 2 µM 0 | PRKAA1; 2 µM 0 | PTK2; 2 µM 0 | PTK2B; 2 µM 0 | RAF1; 2 µM 0 | [1]; 2 µM 0

C=CC(=O)Nc1cc(Nc2nccc(-c3cn(C)c4ccccc34)n2)c(OC)cc1N(C)CCN(C)C [Osimertinib mesylate]
inactive: MAPK1; 2.5 µM 0 | MAPK4; 2.5 µM 0 | MAPKAPK2; 2.5 µM 0 | MKNK1; 2.5 µM 0 | NTRK2; 2.5 µM 0 | NTRK3; 2.5 µM 0 | PAK4; 2.5 µM 0 | PBK; 2.5 µM 0 | PDGFRB; 2.5 µM 0 | PDK1; 2.5 µM 0 | PDPK1; 2.5 µM 0 | PIK4CA; 2.5 µM 0 | PIK4CB; 2.5 µM 0 | PLK1; 2.5 µM 0 | PRKAA1; 2.5 µM 0 | PRKCA; 2.5 µM 0 | PTK2; 2.5 µM 0 | PTK2B; 2.5 µM 0 | RAF1; 2.5 µM 0 | [1]; 2.5 µM 0

COc1cc2c(cc1OC)-c1c(C)c3ccc(OC)c(OC)c3c[n+]1CC2 [Dehydrocorydaline]
inactive: MAPK1; 10 µM 0 | MAPK4; 10 µM 0 | MAPKAPK2; 10 µM 0 | MKNK1; 10 µM 0 | NTRK2; 10 µM 0 | NTRK3; 10 µM 0 | PAK4; 10 µM 0 | PBK; 10 µM 0 | PDGFRB; 10 µM 0 | PDK1; 10 µM 0 | PDPK1; 10 µM 0 | PIK4CA; 10 µM 0 | PIK4CB; 10 µM 0 | PLK1; 10 µM 0 | PRKAA1; 10 µM 0 | PRKCA; 10 µM 0 | PTK2; 10 µM 0 | PTK2B; 10 µM 0 | RAF1; 10 µM 0 | [1]; 10 µM 0

From the supplement of paper PMC12823440, “Inhibitors supercharge kinase turnover through native proteolytic circuits” (Nature, 2025)
